This is an account of results in paper PMC4825987.

Sequences of proteins named here, by UniProt entry; tags and fusion partners are left off.
UniProt P33993: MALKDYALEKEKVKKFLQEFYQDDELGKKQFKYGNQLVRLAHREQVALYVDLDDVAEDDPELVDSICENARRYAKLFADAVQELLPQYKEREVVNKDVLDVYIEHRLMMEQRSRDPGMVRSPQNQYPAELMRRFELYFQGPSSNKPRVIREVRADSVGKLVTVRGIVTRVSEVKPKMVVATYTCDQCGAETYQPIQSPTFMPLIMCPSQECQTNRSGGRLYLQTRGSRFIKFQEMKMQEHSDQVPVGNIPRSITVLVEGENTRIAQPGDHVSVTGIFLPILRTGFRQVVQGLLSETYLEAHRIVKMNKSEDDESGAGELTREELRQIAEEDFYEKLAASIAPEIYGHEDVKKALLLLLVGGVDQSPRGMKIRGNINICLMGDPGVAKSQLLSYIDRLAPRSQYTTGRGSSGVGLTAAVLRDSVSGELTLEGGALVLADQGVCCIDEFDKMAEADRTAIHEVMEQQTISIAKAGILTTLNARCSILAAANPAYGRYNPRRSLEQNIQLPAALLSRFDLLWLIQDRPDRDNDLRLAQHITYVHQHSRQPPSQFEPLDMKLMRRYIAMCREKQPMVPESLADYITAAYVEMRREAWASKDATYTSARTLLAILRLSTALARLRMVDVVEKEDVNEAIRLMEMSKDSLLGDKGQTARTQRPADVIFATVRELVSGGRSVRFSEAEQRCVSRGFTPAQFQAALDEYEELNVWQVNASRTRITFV
UniProt P49736: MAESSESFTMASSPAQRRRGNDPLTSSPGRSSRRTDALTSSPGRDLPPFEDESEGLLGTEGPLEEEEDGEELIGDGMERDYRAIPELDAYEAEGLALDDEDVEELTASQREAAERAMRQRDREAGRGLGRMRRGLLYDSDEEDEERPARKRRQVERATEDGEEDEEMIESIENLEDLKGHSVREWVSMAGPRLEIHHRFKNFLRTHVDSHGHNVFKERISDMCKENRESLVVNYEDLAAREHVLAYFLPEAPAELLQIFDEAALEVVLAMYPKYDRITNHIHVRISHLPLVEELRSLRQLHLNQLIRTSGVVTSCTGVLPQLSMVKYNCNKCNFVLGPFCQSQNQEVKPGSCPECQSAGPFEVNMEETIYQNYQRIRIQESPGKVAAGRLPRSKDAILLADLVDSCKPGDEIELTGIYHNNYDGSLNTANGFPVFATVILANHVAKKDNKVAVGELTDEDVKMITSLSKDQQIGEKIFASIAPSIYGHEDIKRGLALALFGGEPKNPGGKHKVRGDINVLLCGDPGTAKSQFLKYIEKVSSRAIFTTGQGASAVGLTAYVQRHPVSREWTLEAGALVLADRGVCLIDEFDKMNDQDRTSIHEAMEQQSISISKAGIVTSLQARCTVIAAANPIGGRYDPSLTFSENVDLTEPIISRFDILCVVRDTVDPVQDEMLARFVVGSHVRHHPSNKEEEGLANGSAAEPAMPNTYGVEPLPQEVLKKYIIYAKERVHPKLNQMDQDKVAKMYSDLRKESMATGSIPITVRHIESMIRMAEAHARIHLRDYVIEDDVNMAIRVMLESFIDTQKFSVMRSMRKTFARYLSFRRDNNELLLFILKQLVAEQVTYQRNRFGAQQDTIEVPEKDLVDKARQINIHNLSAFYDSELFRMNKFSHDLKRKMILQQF

Results are given in words; binding and its absence hold for the method and conditions named. For part of these data: Binding seen in cells or lysates may run through a third protein. Some binding calls cover weakened binding; strength is not graded here. Where a sequence is shown, tags or fusion partners need not be part of it.

Experiment [1] concerns the target T1, hIPI3 (WDR18, WD repeat domain 18), yeast two-hybrid fusion (human) (UniProt Q9BV38).
T1 sequence: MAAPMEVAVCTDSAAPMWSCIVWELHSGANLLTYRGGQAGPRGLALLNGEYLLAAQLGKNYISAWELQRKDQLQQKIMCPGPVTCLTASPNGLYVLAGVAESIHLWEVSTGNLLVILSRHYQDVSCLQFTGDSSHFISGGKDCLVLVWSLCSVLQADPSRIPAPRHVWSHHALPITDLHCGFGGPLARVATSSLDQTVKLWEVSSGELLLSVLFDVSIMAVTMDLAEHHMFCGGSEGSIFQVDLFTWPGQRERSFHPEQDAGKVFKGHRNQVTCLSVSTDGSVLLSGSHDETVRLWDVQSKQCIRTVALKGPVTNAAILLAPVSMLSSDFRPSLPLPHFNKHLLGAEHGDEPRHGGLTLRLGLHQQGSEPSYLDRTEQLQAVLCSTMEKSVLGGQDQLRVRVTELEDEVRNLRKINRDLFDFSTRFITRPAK
The experiment is described as follows: two-hybrid; Gal4 AD (pGADT7) and BD (pGBKT7) fusions co-transformed into AH109 yeast; growth on SCM-Trp-Leu-His (SCM-3) plates against SCM-Trp-Leu (SCM-2).

In experiment [2] the target is hMCM7, endogenous (human (endogenous in HeLa)) (UniProt P33993). The experiment can be described thus: co-IP; HA-hIPI3 stable HeLa cells arrested at the G1/S boundary by Mimosine; whole-cell extracts precipitated with anti-HA antibody or control mouse IgG; reverse co-IP with anti-hMCM7 antibody; immunoblot. A general note: In western blotting, separated proteins are transferred to a membrane and probed.

Regarding “hMCM2, yeast two-hybrid fusion (from UniProt P49736 1-904)”, in experiment [1], the binding result is recorded as “binds”.

B1: hORC3, yeast two-hybrid fusion (protein, UniProt Q9UBD5 1-711)
chain: MATSSMSKGCFVFKPNSKKRKISLPIEDYFNKGKNEPEDSKLRFETYQLIWQQMKSENERLQEELNKNLFDNLIEFLQKSHSGFQKNSRDLGGQIKLREIPTAALVLGVNVTDHDLTFGSLTEALQNNVTPYVVSLQAKDCPDMKHFLQKLISQLMDCCVDIKSKEEESVHVTQRKTHYSMDSLSSWYMTVTQKTDPKMLSKKRTTSSQWQSPPVVVILKDMESFATKVLQDFIIISSQHLHEFPLILIFGIATSPIIIHRLLPHAVSSLLCIELFQSLSCKEHLTTVLDKLLLTTQFPFKINEKVLQVLTNIFLYHDFSVQNFIKGLQLSLLEHFYSQPLSVLCCNLPEAKRRINFLSNNQCENIRRLPSFRRYVEKQASEKQVALLTNERYLKEETQLLLENLHVYHMNYFLVLRCLHKFTSSLPKYPLGRQIRELYCTCLEKNIWDSEEYASVLQLLRMLAKDELMTILEKCFKVFKSYCENHLGSTAKRIEEFLAQFQSLDETKEEEDASGSQPKGLQKTDLYHLQKSLLEMKELRRSKKQTKFEVLRENVVNFIDCLVREYLLPPETQPLHEVVYFSAAHALREHLNAAPRIALHTALNNPYYYLKNEALKSEEGCIPNIAPDICIAYKLHLECSRLINLVDWSEAFATVVTAAEKMDANSATSEEMNEIIHARFIRAVSELELLGFIKPTKQKTDHVARLTWGGC
As to B1, in experiment [1], the binding result was “binds”.

B2: HA-hIPI3 (protein, UniProt Q9BV38 1-432)
chain: T1 sequence
In the case of B2, in experiment [2], the binding entry is “binds”.

B3: hORC1, yeast two-hybrid fusion (protein, UniProt Q13415 1-861)
chain: MAHYPTRLKTRKTYSWVGRPLLDRKLHYQTYREMCVKTEGCSTEIHIQIGQFVLIEGDDDENPYVAKLLELFEDDSDPPPKKRARVQWFVRFCEVPACKRHLLGRKPGAQEIFWYDYPACDSNINAETIIGLVRVIPLAPKDVVPTNLKNEKTLFVKLSWNEKKFRPLSSELFAELNKPQESAAKCQKPVRAKSKSAESPSWTPAEHVAKRIESRHSASKSRQTPTHPLTPRARKRLELGNLGNPQMSQQTSCASLDSPGRIKRKVAFSEITSPSKRSQPDKLQTLSPALKAPEKTRETGLSYTEDDKKASPEHRIILRTRIAASKTIDIREERTLTPISGGQRSSVVPSVILKPENIKKRDAKEAKAQNEATSTPHRIRRKSSVLTMNRIRQQLRFLGNSKSDQEEKEILPAAEISDSSSDEEEASTPPLPRRAPRTVSRNLRSSLKSSLHTLTKVPKKSLKPRTPRCAAPQIRSRSLAAQEPASVLEEARLRLHVSAVPESLPCREQEFQDIYNFVESKLLDHTGGCMYISGVPGTGKTATVHEVIRCLQQAAQANDVPPFQYIEVNGMKLTEPHQVYVQILQKLTGQKATANHAAELLAKQFCTRGSPQETTVLLVDELDLLWTHKQDIMYNLFDWPTHKEARLVVLAIANTMDLPERIMMNRVSSRLGLTRMCFQPYTYSQLQQILRSRLKHLKAFEDDAIQLVARKVAALSGDARRCLDICRRATEICEFSQQKPDSPGLVTIAHSMEAVDEMFSSSYITAIKNSSVLEQSFLRAILAEFRRSGLEEATFQQIYSQHVALCRMEGLPYPTMSETMAVCSHLGSCRLLLVEPSRNDLLLRVRLNVSQDDVLYALKDE
As to B3, in experiment [1], the binding result is recorded as “binds”.

B4: hORC2, yeast two-hybrid fusion (protein, UniProt Q13416 1-577)
chain: MSKPELKEDKMLEVHFVGDDDVLNHILDREGGAKLKKERAQLLVNPKKIIKKPEYDLEEDDQEVLKDQNYVEIMGRDVQESLKNGSATGGGNKVYSFQNRKHSEKMAKLASELAKTPQKSVSFSLKNDPEITINVPQSSKGHSASDKVQPKNNDKSEFLSTAPRSLRKRLIVPRSHSDSESEYSASNSEDDEGVAQEHEEDTNAVIFSQKIQAQNRVVSAPVGKETPSKRMKRDKTSDLVEEYFEAHSSSKVLTSDRTLQKLKRAKLDQQTLRNLLSKVSPSFSAELKQLNQQYEKLFHKWMLQLHLGFNIVLYGLGSKRDLLERFRTTMLQDSIHVVINGFFPGISVKSVLNSITEEVLDHMGTFRSILDQLDWIVNKFKEDSSLELFLLIHNLDSQMLRGEKSQQIIGQLSSLHNIYLIASIDHLNAPLMWDHAKQSLFNWLWYETTTYSPYTEETSYENSLLVKQSGSLPLSSLTHVLRSLTPNARGIFRLLIKYQLDNQDNPSYIGLSFQDFYQQCREAFLVNSDLTLRAQLTEFRDHKLIRTKKGTDGVEYLLIPVDNGTLTDFLEKEEEEA
Take B4: in experiment [1], the binding result was “binds”.

B5: hMCM3, yeast two-hybrid fusion (protein, UniProt P25205 1-808)
chain: MAGTVVLDDVELREAQRDYLDFLDDEEDQGIYQSKVRELISDNQYRLIVNVNDLRRKNEKRANRLLNNAFEELVAFQRALKDFVASIDATYAKQYEEFYVGLEGSFGSKHVSPRTLTSCFLSCVVCVEGIVTKCSLVRPKVVRSVHYCPATKKTIERRYSDLTTLVAFPSSSVYPTKDEENNPLETEYGLSVYKDHQTITIQEMPEKAPAGQLPRSVDVILDDDLVDKAKPGDRVQVVGTYRCLPGKKGGYTSGTFRTVLIACNVKQMSKDAQPSFSAEDIAKIKKFSKTRSKDIFDQLAKSLAPSIHGHDYVKKAILCLLLGGVERDLENGSHIRGDINILLIGDPSVAKSQLLRYVLCTAPRAIPTTGRGSSGVGLTAAVTTDQETGERRLEAGAMVLADRGVVCIDEFDKMSDMDRTAIHEVMEQGRVTIAKAGIHARLNARCSVLAAANPVYGRYDQYKTPMENIGLQDSLLSRFDLLFIMLDQMDPEQDREISDHVLRMHRYRAPGEQDGDAMPLGSAVDILATDDPNFSQEDQQDTQIYEKHDNLLHGTKKKKEKMVSAAFMKKYIHVAKIIKPVLTQESATYIAEEYSRLRSQDSMSSDTARTSPVTARTLETLIRLATAHAKARMSKTVDLQDAEEAVELVQYAYFKKVLEKEKKRKKRSEDESETEDEEEKSQEDQEQKRKRRKTRQPDAKDGDSYDPYDFSDTEEEMPQVHTPKTADSQETKESQKVELSESRLKAFKVALLDVFREAHAQSIGMNRLTESINRDSEEPFSSVEIQAALSKMQDDNQVMVSEGIIFLI
Regarding B5, the binding entry in experiment [1] is given as “binds”.
